Test results: PubChem BioAssay AID1487 (National Center for Advancing Translational Sciences (NCATS), 2009)
Some of the results follow. Shown are side measurements of this screen, not its main read-out; they come without a call. The list favours compounds with an active or inconclusive main result. The note in brackets gives the kind of curve behind each potency; many fits are weak.

Test: qHTS Assay for Modulators of Lamin A Splicing
Conditions: HeLa LMNA splicing GFP/RFP minigene ratio, 48 h
Method in brief: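 S3 HeLa stable clones carrying a lamin A-EGFP splicing minigene plus DsRed2 were seeded at 600 cells/well in Opti-MEM with 2% FBS, pin-dosed and incubated 48 h at 37°C. Acumen cytometry (488 nm) gave the GFP/RFP total-intensity ratio.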

[1] = measured here: GFP splicing reporter channel
[2] = measured here: RFP viability control channel

Row | Structure (SMILES) | AC50 [1] | AC50 [2]
1 | N=c1c2c(n(Cc3ccccc3)c3c1CCC3)CCC2 | 1.78 µM [rising, full curve] | 2.82 µM [rising, full curve]
2 | COc1cc2nc(C3CC3)n(NC(=O)c3ccc(Cl)cc3)c(=O)c2cc1OC | – | 14.1 µM [rising, single point]
3 | COc1ccc(C2Nc3ccccc3C(=O)N2Cc2ccco2)cc1COc1ccc(F)cc1 (configuration not stated) | – | 20 µM [rising, single point]
4 | CC(=O)OCC(COC(C)=O)OC(C)=O | – | 35.5 µM [rising, single point]
5 | COc1ccc(N2C(=O)CC(Sc3nc(C)c4c(n3)CCCC4)C2=O)cc1 (configuration not stated) | – | 10 µM [rising, partial curve, poor fit]
6 | COc1cc(Nc2ccc(C)cc2)c([N+](=O)[O-])nc1[N+](=O)[O-] | – | 2.82 µM [rising, partial curve]
7 | O=C(CSc1nc2c([nH]c3ccccc32)c(=O)n1-c1ccc(Cl)cc1)N1CCc2ccccc21 | – | 35.5 µM [falling, single point]
8 | O=C(COC(=O)/C=C/c1cccc([N+](=O)[O-])c1)NCCCN1CCCC1=O | 0.447 µM [rising, full curve, poor fit] | –
9 | CCOc1ccc(C2C=C(c3ccc(C)cc3)Nc3ncnn32)cc1 (configuration not stated) | – | 31.6 µM [rising, single point]
10 | O=C(c1ccccc1)c1ccc(N2CCCC2)cc1 | – | 28.2 µM [rising, single point]
11 | O=C(N/N=C/c1cccnc1)c1cc(-c2cccs2)nc2ccccc12 | – | 11.2 µM [rising, partial curve]
12 | O=C(CCCN1C(=O)/C(=C\c2ccco2)SC1=S)Nc1cccc2ccccc12 | – | 10 µM [rising, partial curve]
13 | COc1ccc(Br)cc1CNC(=O)CCc1nc(-c2ccccc2F)no1 | – | 22.4 µM [rising, single point]
14 | O=c1c2sccc2nc(SCc2ccc([N+](=O)[O-])cc2)n1Cc1ccccn1 | 15.8 µM [rising, single point] | 35.5 µM [rising, single point]
15 | CN1CC2(C(=O)c3ccccc3)CN(C)CC(C(=O)c3ccccc3)(C1)C2 | 6.31 µM [falling, single point] | 3.98 µM [falling, partial curve]
16 | Cc1ccc(OCC(=O)NCC2(N3CCN(C)CC3)CCCCC2)cc1 | – | 25.1 µM [falling, partial curve, poor fit]

Row | Structure (SMILES) | AC50 [1] | AC50 [2]
17 | O=C(O)CCc1nn2c3ccccc3n(CCO)c2nc1=O | – | 35.5 µM [falling, single point]
18 | CC(=O)c1c(C)[nH]c(C(=O)COc2cc(C)ccc2C(C)C)c1C | – | 4.47 µM [rising, partial curve, poor fit]
19 | NC(=O)OC[C@H](O)COc1ccc(Cl)cc1 | 1.12 µM [rising, partial curve] | –
20 | Cc1ccc(O)c(NC(=O)c2cc(-c3ccc(F)cc3)no2)c1 | 0.00316 µM [falling, full curve, poor fit] | –
21 | O=C1c2ccsc2SCCN1Cc1ccccc1Cl | 8.91 µM [rising, partial curve] | –
22 | Cc1nc(-c2ccccc2)sc1C(=O)/C=C/c1ccc(Cl)cc1 | 7.94 µM [falling, partial curve] | 8.91 µM [falling, partial curve]
23 | CC(C)CCNC(=O)c1cnc2sc(N3CCCCCC3)nn2c1=O | 15.8 µM [rising, partial curve, poor fit] | 1.12 µM [rising, full curve, poor fit]
24 | COc1ccc(-c2cc(CNC(=O)CN(C)Cc3ccccc3)on2)cc1 | 3.55 µM [rising, single point] | –
25 | CCCC(=O)Nc1ccc(NC(=O)c2ccccc2Cl)nc1 | – | 35.5 µM [rising, single point]
26 | Cc1ccc(C2(c3noc(CN4CCC(C(=O)N5CCOCC5)CC4)n3)CCCC2)cc1 | – | 0.141 µM [falling, full curve, poor fit]
27 | Cc1cc(C)c(CSc2ncc(-c3ccc([N+](=O)[O-])cc3)[nH]2)c(C)c1 | 35.5 µM [falling, single point] | 35.5 µM [falling, single point]
28 | O=C(COC(=O)c1c2c(nc3ccccc13)CCCCC2)c1ccc(Cl)s1 | – | 3.16 µM [rising, single point]
29 | CSc1cccc(NC(=O)C2CCCN2S(=O)(=O)c2ccc(Br)s2)c1 (configuration not stated) | – | 11.2 µM [rising, single point]
30 | Cc1ccc2nc(SCc3cn4cccnc4n3)[nH]c2c1 | – | 4.47 µM [rising, full curve, poor fit]
31 | Clc1ccc(-c2nnnn2-c2ccc(Cl)c(Cl)c2)cc1Cl | – | 31.6 µM [rising, single point]

2 entries from above, in markdown.

| Row | Structure (SMILES) | AC50 [1] | AC50 [2] |
| --- | --- | --- | --- |
| 20 | Cc1ccc(O)c(NC(=O)c2cc(-c3ccc(F)cc3)no2)c1 | 0.00316 µM [falling, full curve, poor fit] | – |
| 21 | O=C1c2ccsc2SCCN1Cc1ccccc1Cl | 8.91 µM [rising, partial curve] | – |
